Experimental data: PubChem BioAssay AID1259327 (Drosophila RNAi Screening Center, 2017)
Screen: 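Baseline ATP after transmembrane-protein gene knock-down with water vehicle only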. System: Drosophila S2R+ cells. Reagents: long dsRNA against Drosophila genes. Timing: 5 days (water added on day 4, read one day later). Challenge: water added as vehicle, no metal, one day before read-out. Detection: 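Total ATP measured by luciferase light, scaled to plate mean, duplicates averaged, then z-scored across plates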. Direction: ATP z-score: higher = more total ATP than typical wells; ATP luminescence: higher = more total ATP. Call rule: 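a hit is any knock-down whose absolute ATP z-score is greater than 1.5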. Calls: active = hit: ATP up or down; inactive = no clear ATP change.
In all, the deposit lists about 3,100 reagents; this is an unselected part. 378 of them (12%) were called active. 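Hits include both directions; z-score sign shows ATP rise or fall; raw luminescence values are not plate-normalised.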 A number with no mark means an inactive call. A plus sign joins genes that one reagent is predicted to hit. The record does not give: the amount of reagent.

Target gene,DRSC id,"ATP z-score, duplicate mean","ATP luminescence, replicate 1 (RLU)","ATP luminescence, replicate 2 (RLU)"
Rh5 (Rhodopsin 5),DRSC03412,0.363,4.40e5,5.74e5
Rh5 (Rhodopsin 5),DRSC25429,-0.044,7.73e5,9.17e5
COX6AL2 (Cytochrome c oxidase subunit 6A-like 2),DRSC10082,0.102,9.46e5,8.73e5
COX6AL2 (Cytochrome c oxidase subunit 6A-like 2),DRSC39542,-0.309,4.34e5,4.30e5
CG6928,DRSC10749,-0.557,6.79e5,6.64e5
CG6928,DRSC39754,-0.061,4.29e5,4.94e5
ppk29 (pickpocket 29),DRSC04205,-0.444,6.85e5,6.73e5
ppk29 (pickpocket 29),DRSC39599,1.64 (active),4.87e5,6.70e5
CG31321,DRSC13028,0.0923,7.11e5,7.97e5
CG31321,DRSC27335,3.77 (active),8.38e5,9.49e5
CG15279,DRSC01935,0.447,4.27e5,5.99e5
CG15279,DRSC27347,0.447,1.13e6,1.13e6
"Alg14 (ALG14, UDP-N-acetylglucosaminyltransferase subunit)",DRSC19983,0.377,7.17e5,7.45e5
CG42818,DRSC01963,1.09,8.29e5,8.55e5
Syx17 (Syntaxin 17),DRSC08591,0.71,7.92e5,8.22e5
CG32081,DRSC09861,0.268,9.20e5,9.41e5
CG32081,DRSC39618,-0.901,4.21e5,3.86e5
ZnT49B (Zinc transporter 49B),DRSC07225,-0.542,4.99e5,6.42e5
ZnT49B (Zinc transporter 49B),DRSC38001,-0.217,5.83e5,5.39e5

Looked up above:
Entry for ZnT49B (Zinc transporter 49B) [DRSC38001] under “ATP luminescence, replicate 1 (RLU)”: 5.83e5
For “ATP luminescence, replicate 2 (RLU)”, CG31321 [DRSC13028] has 7.97e5
For “ATP luminescence, replicate 2 (RLU)”, COX6AL2 (Cytochrome c oxidase subunit 6A-like 2) [DRSC10082] has 8.73e5
Result of Alg14 (ALG14, UDP-N-acetylglucosaminyltransferase subunit) [DRSC19983] in “ATP luminescence, replicate 1 (RLU)”: 7.17e5
For “ATP luminescence, replicate 1 (RLU)”, ZnT49B (Zinc transporter 49B) [DRSC07225] shows 4.99e5
Entry of CG6928 [DRSC39754] in “ATP z-score, duplicate mean”: -0.061

Continued.
Target gene,DRSC id,"ATP z-score, duplicate mean","ATP luminescence, replicate 1 (RLU)","ATP luminescence, replicate 2 (RLU)"
Ir94d (Ionotropic receptor 94d),DRSC21568,-0.0892,5.60e5,5.84e5
CG9304,DRSC04538,-0.493,6.80e5,6.67e5
CG9304,DRSC26210,0.87,9.43e5,9.74e5
Npl4 (Nuclear protein localization 4),DRSC15615,0.477,7.75e5,7.35e5
Npl4 (Nuclear protein localization 4),DRSC15616,0.402,3.43e5,7.39e5
MFS12 (Major Facilitator Superfamily Transporter 12),DRSC07268,-0.292,6.77e5,7.24e5
mys (myospheroid),DRSC18799,0.458,5.94e5,8.27e5
mys (myospheroid),DRSC29061,-0.927,7.33e5,6.91e5
CG7744,DRSC07036,0.587,8.19e5,7.68e5
CG7744,DRSC39431,1.69 (active),6.07e5,5.26e5
CG13016,DRSC06271,-0.439,5.70e5,5.90e5
CG13016,DRSC39858,-0.251,5.68e5,5.56e5
ChT (Choline transporter),DRSC16296,-0.71,6.34e5,6.31e5
CG17036,DRSC02564,1.88 (active),9.08e5,9.43e5
CG17036,DRSC28145,0.332,9.54e5,1.10e6
Snmp2 (Sensory neuron membrane protein 2),DRSC10228,-0.377,8.51e5,8.42e5
Snmp2 (Sensory neuron membrane protein 2),DRSC10843,0.296,8.01e5,7.46e5
NijB (Ninjurin B),DRSC09850,1.42,8.79e5,8.86e5
NijB (Ninjurin B),DRSC39587,-0.889,3.92e5,4.18e5
sand (sandman),DRSC07245,0.524,7.22e5,6.12e5
sand (sandman),DRSC39678,0.912,5.16e5,5.39e5
PGRP-LD + Pmi,DRSC10512,-0.461,6.26e5,7.32e5
Nrg (Neuroglian),DRSC17573,1.39,8.26e5,6.64e5
Nrg (Neuroglian),DRSC18688,0.317,6.95e5,7.80e5
Nrg (Neuroglian),DRSC27797,-1.28,7.71e5,9.54e5
Ranbp16,DRSC20160,0.868,5.59e5,8.41e5
CG8837,DRSC00711,0.136,7.70e5,6.71e5
CG8837,DRSC29440,0.093,8.78e5,7.94e5
